Data as given in PubChem BioAssay AID1671195 (Yale University, 2021).
The deposit covers about 22,000 reagents; shown is an unselected part. About 1,510 of all reagents (6.9%) were called active. 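Active includes knockdowns raising or lowering LDL uptake; positive z-scores mean more uptake, negative mean less.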 Reagents against one gene are numbered here.

Test: 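Regulators of LDL receptor activity judged by labelled LDL uptake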 (primary screen)
System: human Huh7 hepatoma cells
Reagent: siRNA pool against human genes, 18 nM
Timing: about 2 to 2.5 days of knockdown, then 8 h LDL uptake
Treatment: DiI-labelled LDL at 30 µg/ml for 8 h, in lipoprotein-deficient serum medium
Measured: 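Per-cell DiI-LDL intensity by automated imaging; well means scaled to the plate median and given as a robust z-score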
Reading the numbers: robust z-score: higher = more LDL uptake after knockdown
Hit rule: 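Active when two or more replicates show a robust z-score above 2 or below -2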

target	reagent	robust z-score, replicate 1	robust z-score, replicate 2	robust z-score, replicate 3	outcome
PPP1CC (protein phosphatase 1 catalytic subunit gamma)	1	1.47	0.3	1.68	inactive
LRRC37A6P (leucine rich repeat containing 37 member A6, pseudogene)	1	0.845	1.1	1.13	inactive
RBL2 (RB transcriptional corepressor like 2)	1	-0.291	0.326	-0.533	inactive
CRYBG3 (crystallin beta-gamma domain containing 3)	1	0.145	1.24	0.73	inactive
ZNRF2P1 (zinc and ring finger 2 pseudogene 1)	1	2.12	2.88	2.78	active
ARHGAP27P1 (Rho GTPase activating protein 27 pseudogene 1)	1	-0.52	0.57	-0.945	inactive
OR6K6 (olfactory receptor family 6 subfamily K member 6)	1	-0.0513	-0.0964	-0.0298	inactive
CYTOR (cytoskeleton regulator RNA)	1	-1.57	-1.41	-1.59	inactive
RAB11A (RAB11A, member RAS oncogene family)	1	1.21	1.07	0.324	inactive
LIN37 (lin-37 DREAM MuvB core complex component)	1	-0.847	-1.81	-2.19	inactive
S100A11 (S100 calcium binding protein A11)	1	0.0499	-0.148	0.664	inactive
CPTP (ceramide-1-phosphate transfer protein)	1	-0.622	-0.568	-1.07	inactive
NR2F2 (nuclear receptor subfamily 2 group F member 2)	1	1.33	1.18	0.868	inactive
MOCOS (molybdenum cofactor sulfurase)	1	-0.079	0.957	-0.849	inactive
DIS3L2 (DIS3 like 3'-5' exoribonuclease 2)	1	-0.297	-0.482	-0.77	inactive
NOSIP (nitric oxide synthase interacting protein)	1	2.02	0.767	1.3	inactive
FBXL13 (F-box and leucine rich repeat protein 13)	1	0.358	0.372	0.823	inactive
PAPOLG (poly(A) polymerase gamma)	1	3.87	2.42	3.37	active
ZDHHC19 (zDHHC palmitoyltransferase 19)	1	-0.0789	0.972	0.551	inactive
ABCD3 (ATP binding cassette subfamily D member 3)	1	-1.08	-0.859	-1.69	inactive
SEMA6B (semaphorin 6B)	1	-1.15	0.236	-1.57	inactive
RYR3 (ryanodine receptor 3)	1	0.253	0.251	0.0772	inactive
FAM182A (family with sequence similarity 182 member A)	1	-1.24	-1.11	-0.829	inactive
ZNF667 (zinc finger protein 667)	1	-0.19	-0.123	-0.38	inactive
MED25 (mediator complex subunit 25)	1	-0.357	-0.00427	-0.45	inactive
CARNS1 (carnosine synthase 1)	1	-0.839	-0.306	1.53	inactive
VN1R10P (vomeronasal 1 receptor 10, pseudogene)	1	0.197	-0.0857	-0.166	inactive
TMEM216 (transmembrane protein 216)	1	0.583	-0.893	0.0759	inactive
TNRC18 (trinucleotide repeat containing 18)	1	0.498	0.996	0.0571	inactive
TNRC18 (trinucleotide repeat containing 18)	2	-0.987	-0.557	-0.0882	inactive
PSAT1 (phosphoserine aminotransferase 1)	1	-0.404	-0.384	0.138	inactive
TSTD2 (thiosulfate sulfurtransferase like domain containing 2)	1	-0.137	-1.62	-0.28	inactive

Sorted by “robust z-score, replicate 1” (high to low): 8 of the entries above
target	reagent	robust z-score, replicate 1	robust z-score, replicate 2	robust z-score, replicate 3	outcome
TMEM216 (transmembrane protein 216)	1	0.583	-0.893	0.0759	inactive
RYR3 (ryanodine receptor 3)	1	0.253	0.251	0.0772	inactive
VN1R10P (vomeronasal 1 receptor 10, pseudogene)	1	0.197	-0.0857	-0.166	inactive
ZNF667 (zinc finger protein 667)	1	-0.19	-0.123	-0.38	inactive
MED25 (mediator complex subunit 25)	1	-0.357	-0.00427	-0.45	inactive
CARNS1 (carnosine synthase 1)	1	-0.839	-0.306	1.53	inactive
SEMA6B (semaphorin 6B)	1	-1.15	0.236	-1.57	inactive
FAM182A (family with sequence similarity 182 member A)	1	-1.24	-1.11	-0.829	inactive

Further reagents follow:
target	reagent	robust z-score, replicate 1	robust z-score, replicate 2	robust z-score, replicate 3	outcome
FNDC8 (fibronectin type III domain containing 8)	1	-0.52	-1.37	-0.585	inactive
TMEM37 (transmembrane protein 37)	1	-0.758	-0.652	-1.44	inactive
GPSM3 (G protein signaling modulator 3)	1	0.824	0.579	0.843	inactive
EMG1 (EMG1 N1-specific pseudouridine methyltransferase)	1	-0.295	2.6	0.719	inactive
ATN1 (atrophin 1)	1	0.0174	-1.65	-0.671	inactive
CNNM4	1	-0.512	-0.174	0.555	inactive
LOC401048 (retired record)	1	2.08	1.4	2.43	active
MRRFP1 (mitochondrial ribosome recycling factor pseudogene 1)	1	-0.418	-0.416	-0.408	inactive
ANO4 (anoctamin 4)	1	0.702	0.993	2.1	inactive
STARD4 (StAR related lipid transfer domain containing 4)	1	0.644	2.1	0.518	inactive
SOAT2 (sterol O-acyltransferase 2)	1	0.0593	0.24	0.000668	inactive
RAB3IP (RAB3A interacting protein)	1	0.348	1.29	0.663	inactive
FGFBP3 (fibroblast growth factor binding protein 3)	1	0.0133	-1.27	-0.432	inactive
LOC399900	1	0.243	-1.23	-1.01	inactive
SLC25A30	1	-0.407	-0.985	-0.867	inactive
RPS8P10 (ribosomal protein S8 pseudogene 10)	1	2.28	2.32	1.64	active
GALNT18 (polypeptide N-acetylgalactosaminyltransferase 18)	1	0.377	-0.28	0.403	inactive
C5 (complement C5)	1	1.36	0.566	1.75	inactive
LOC441853 (retired record)	1	0.129	0.135	0.631	inactive
CLCN6 (Cl-/H+ antiporter 6)	1	1.19	0.338	1.59	inactive
BFAR (bifunctional apoptosis regulator)	1	0.707	0.703	0.143	inactive
MAP4K4 (mitogen-activated protein kinase kinase kinase kinase 4)	1	1.53	0.213	0.484	inactive
FAM76B (family with sequence similarity 76 member B)	1	0.485	-0.00362	0.792	inactive
TRIO (trio Rho guanine nucleotide exchange factor)	1	0.604	0.839	0.92	inactive
RAD21 (RAD21 cohesin complex component)	1	-1.14	-2.03	-0.933	inactive
MRPL21 (mitochondrial ribosomal protein L21)	1	-0.888	-1.01	-1.03	inactive
ARHGEF35 (Rho guanine nucleotide exchange factor 35)	1	1.31	1.43	1.35	inactive
SAXO2 (stabilizer of axonemal microtubules 2)	1	-0.631	-0.717	-0.649	inactive
SULT1A3 (sulfotransferase family 1A member 3)	1	-0.446	-0.712	-0.782	inactive
ZNF19 (zinc finger protein 19)	1	0.248	0.55	-0.0562	inactive
CNMD (chondromodulin)	1	0.86	0.332	0.183	inactive
NENF (neudesin neurotrophic factor)	1	-0.819	0.749	-0.406	inactive
TMEM65 (transmembrane protein 65)	1	0.0174	0.172	-0.328	inactive
LOC256283 (retired record)	1	-0.501	-0.24	-0.301	inactive
SLC5A8	1	-0.658	-0.51	-0.332	inactive
DCST2 (DC-STAMP domain containing 2)	1	-1.08	-0.315	-1.22	inactive
